Taken from: PubChem BioAssay AID504764 (Drosophila RNAi Screening Center, 2011)
The deposit covers about 22,000 reagents; this is an unselected part of those with a known target gene and a result. In the full data, 403 (1.9%) are marked active. 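Unnormalised raw counts per well; ratio z-scores behind the hit calls and whether each hit raises or lowers signal are not deposited.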 A plus sign joins genes that one reagent is predicted to hit. Not given: the amount of reagent.

- Test: 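Genome-wide screen for regulators of Notch-driven gene expression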 (primary screen)
- Cells: Drosophila Kc167 cells
- Reagents: long dsRNA against Drosophila genes
- Time to read-out: about 5 days (4 days dsRNA, then 24 h after transfection)
- Conditions: transfection of constitutively active membrane-tethered Notch lacking the extracellular domain, read 24 h later
- Measured: 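Firefly luciferase from an E(spl)m3 reporter with active Notch, plus control-promoter and uninduced reporter wells for normalisation; unnormalised counts, duplicate wells a and b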
- Direction: induced reporter light, run 1, well a and induced reporter light, run 1, well b: higher = more light from the Notch target reporter with active Notch; control promoter light, run 1, well a and control promoter light, run 1, well b: higher = more light from the viral control promoter (cell number, transfection, viability); uninduced reporter light, run 1, well a: higher = more light from the Notch target reporter without active Notch
- Rule for the call: 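Wells with low control signal or poorly matching duplicates excluded; duplicates averaged; per source plate, z beyond ±2 for induced/control log2 ratio or beyond ±1.8 for induced/uninduced marks a hit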
- Calls: active = modifier hit (raised or lowered Notch signal); inactive = not a hit

gene	amplicon	induced reporter light, run 1, well a	induced reporter light, run 1, well b	control promoter light, run 1, well a	control promoter light, run 1, well b	uninduced reporter light, run 1, well a	Call
Pms2	DRSC07511	1.08e5	1.29e5	2.26e5	2.77e5	11942	inactive
CG33258	DRSC09415	1.64e5	1.88e5	2.23e5	2.50e5	16282	inactive
Mccc2	DRSC04987	2.40e5	1.99e5	1.96e5	1.50e5	14015	inactive
C901	DRSC19351	1.33e5	1.38e5	1.81e5	2.02e5	9665	inactive
CG16852	DRSC01876	1.27e5	1.54e5	1.44e5	1.46e5	11180	inactive
Eogt	DRSC00727	1.43e5	1.33e5	1.27e5	1.39e5	15150	inactive
Bap170	DRSC04964	78820	79425	58485	68480	3980	active
Fst	DRSC16491	1.60e5	1.42e5	1.11e5	1.10e5	11590	inactive
CG30492 (retired record) + M7BP	DRSC05053	66200	62815	94175	78860	3060	inactive
CG30492 (retired record) + M7BP	DRSC05054	51180	72085	63965	57490	3480	inactive
CG30492 (retired record) + M7BP	DRSC05055	88335	87005	1.04e5	1.16e5	3940	inactive
CG30492 (retired record) + M7BP	DRSC06701	2.30e5	1.75e5	2.82e5	2.55e5	15565	inactive
CG30492 (retired record) + M7BP	DRSC06816	2.03e5	1.55e5	2.25e5	2.16e5	13635	inactive
CG1835	DRSC20560	1.02e5	1.11e5	1.23e5	1.30e5	12810	inactive
CG17564	DRSC02626	34995	29175	34515	31580	3585	inactive
CG9682	DRSC16536	1.57e5	2.03e5	2.28e5	2.31e5	15630	inactive
Usp16-45	DRSC18352	2.07e5	1.67e5	2.49e5	2.48e5	16970	inactive
pyd	DRSC12712	1.62e5	1.34e5	1.30e5	1.62e5	11280	inactive
pyd	DRSC14387	1.12e5	1.32e5	85810	80985	9395	inactive
pyd	DRSC14445	1.16e5	1.21e5	1.41e5	96720	8140	inactive
pyd	DRSC14509	98605	1.23e5	1.00e5	83875	7970	inactive
pyd	DRSC16547	1.37e5	1.21e5	99605	78190	9955	inactive
pyd	DRSC16548	18675	31305	19505	16695	3692	inactive
pyd	DRSC17041	91105	1.00e5	1.29e5	93855	6550	inactive
pyd	DRSC21523						inactive
pyr	DRSC06319	1.11e5	97450	1.24e5	1.23e5	9750	inactive
ringer	DRSC10455	1.66e5	2.41e5	3.10e5	2.78e5	6050	active
Pp2C1	DRSC18699	1.62e5	1.07e5	1.84e5	1.77e5	12690	inactive
CG13148	DRSC06275	92080	95040	1.40e5	1.02e5	6442	inactive
CG31957	DRSC00207	98530	87575	1.31e5	1.41e5	7095	inactive
CG5968	DRSC02916	1.95e5	2.16e5	2.74e5	3.18e5	17145	inactive
CG11951	DRSC14442	1.27e5	1.20e5	2.03e5	1.84e5	11510	inactive
CG8236	DRSC16399	97055	98035	91675	1.02e5	7170	inactive
brat	DRSC03497	2.37e5	2.18e5	1.63e5	1.79e5	16595	inactive

2 successive reagents from above:
gene	amplicon	induced reporter light, run 1, well a	induced reporter light, run 1, well b	control promoter light, run 1, well a	control promoter light, run 1, well b	uninduced reporter light, run 1, well a	Call
CG16852	DRSC01876	1.27e5	1.54e5	1.44e5	1.46e5	11180	inactive
Eogt	DRSC00727	1.43e5	1.33e5	1.27e5	1.39e5	15150	inactive
